Patent US20150038671A1 (priority 2013, published 2015)
Starred links: 1 amine or outer side, 2 acyl side, 3 side chain; linkers in the order of their positions; H or OH if unused. Positions of bridges follow the written chain, without caps; N, C: chain ends. Chains are numbered I, II in the order given. X1 = O=C(CCN[*:2])[*:1]

Experiment: general procedure: Fmoc solid-phase peptide synthesis; Fmoc-Val-Wang resin; Rink amide resin; HBTU/DIPEA
Settings: conjugation step, overall

Substance: I: H-CKNYKKTEV-OH / II: H-CRRRRRRR-NH2 (disulfide I:1-II:1; linker I:6-I:8 via X1; SMILES CC(C)[C@H](NC(=O)[C@@H]1CCC(=O)NCCC(=O)NCCCC[C@H](NC(=O)[C@H](CCCCN)NC(=O)[C@H](Cc2ccc(O)cc2)NC(=O)[C@H](CC(N)=O)NC(=O)[C@H](CCCCN)NC(=O)[C@@H](N)CSSC[C@H](N)C(=O)N[C@@H](CCCNC(=N)N)C(=O)N[C@@H](CCCNC(=N)N)C(=O)N[C@@H](CCCNC(=N)N)C(=O)N[C@@H](CCCNC(=N)N)C(=O)N[C@@H](CCCNC(=N)N)C(=O)N[C@@H](CCCNC(=N)N)C(=O)N[C@@H](CCCNC(=N)N)C(N)=O)C(=O)N[C@@H]([C@@H](C)O)C(=O)N1)C(=O)O)
- conjugation yield: 60%
